Reference: patent US20240352121A1, “LAIR-1 AGONISTIC ANTIBODIES AND METHODS OF USE THEREOF” (NEXTCURE, INC., priority 2023, published 2024)
Results are given in words; binding and its absence hold for the method and conditions named. Some results given as binding are weak or reduced against the parent protein; the word gives no strength.

Amino acid sequences for entries named in this document (tags omitted). A change or cut given only in a name is not applied to a line headed by its entry. Chains listed by the source or under a name are the forms on record and can include a tag or linker.
human LAIR-1 fused to the zeta chain of CD3, on UT-140 reporter cells (P20963, form named): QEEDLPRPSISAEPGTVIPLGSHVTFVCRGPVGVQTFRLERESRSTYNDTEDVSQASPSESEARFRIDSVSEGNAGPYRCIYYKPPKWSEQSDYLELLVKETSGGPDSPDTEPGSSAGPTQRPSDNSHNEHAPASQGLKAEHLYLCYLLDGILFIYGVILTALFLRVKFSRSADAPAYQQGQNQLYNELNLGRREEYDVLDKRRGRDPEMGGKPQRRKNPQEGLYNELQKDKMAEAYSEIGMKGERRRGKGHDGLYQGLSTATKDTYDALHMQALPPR

Molecular target: human LAIR-1 fused to the zeta chain of CD3, on UT-140 reporter cells (human) (UniProt P20963)
Test: binding on UT140 reporter cells (FIG. 24B)

- binding: binds
B1: h11B3 LAIR-1 mAb, Anti-LAIR-1 Variant 6 (h11B3 VL-2 / h11B3 VH-3) (antibody, V domains shown)
VH: EVQLVESGGGLVQPGGSLKLSCAASGFTFNTNAMYWVRQAPGKGLEWVGRIRSKSSNYATYYAASVKGRFTISRDDSKNTLYLQMNSLKTEDTAVYYCVRGGSGFFAYWGQGTLVTVSS
VL: DIQMTQSPSSLSASLGDRVTITCKASEDIYIRLAWYQQKPGKAPRLLISTATSLETGVPSRFSGSGSGTDYTFTISSLQPEDIATYYCQQYWSTPYTFGGGTRLEIK
